Experimental data taken from paper PMC5430073.
These are yes or no findings as the source states them, for the method shown. In cells and extracts the contact can be indirect. Some binding calls cover weakened binding; strength is not graded here. Where a sequence is shown, tags or fusion partners need not be part of it.

T1: eGFP-ClC-Kb (human) (UniProt P51801)
T1 sequence: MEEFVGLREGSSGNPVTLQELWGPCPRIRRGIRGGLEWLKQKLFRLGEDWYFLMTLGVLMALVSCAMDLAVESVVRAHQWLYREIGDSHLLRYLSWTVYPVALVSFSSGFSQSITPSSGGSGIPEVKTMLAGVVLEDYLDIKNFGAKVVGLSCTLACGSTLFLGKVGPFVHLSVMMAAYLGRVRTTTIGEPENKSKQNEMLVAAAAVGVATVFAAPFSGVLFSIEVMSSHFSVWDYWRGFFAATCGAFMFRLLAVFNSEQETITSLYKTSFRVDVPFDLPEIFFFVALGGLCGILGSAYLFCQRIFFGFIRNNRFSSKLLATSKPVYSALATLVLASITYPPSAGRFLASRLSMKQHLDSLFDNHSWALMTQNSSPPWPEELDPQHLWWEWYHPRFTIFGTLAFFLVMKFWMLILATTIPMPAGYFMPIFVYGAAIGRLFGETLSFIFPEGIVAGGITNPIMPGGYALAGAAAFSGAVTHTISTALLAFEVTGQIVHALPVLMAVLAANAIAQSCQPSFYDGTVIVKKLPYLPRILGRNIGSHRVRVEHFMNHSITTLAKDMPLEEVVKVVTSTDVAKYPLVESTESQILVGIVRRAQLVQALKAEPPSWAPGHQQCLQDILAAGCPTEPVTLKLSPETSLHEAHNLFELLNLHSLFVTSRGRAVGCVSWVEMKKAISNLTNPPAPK

T2: eGFP-ClC-Ka (human) (UniProt P51800)
T2 sequence: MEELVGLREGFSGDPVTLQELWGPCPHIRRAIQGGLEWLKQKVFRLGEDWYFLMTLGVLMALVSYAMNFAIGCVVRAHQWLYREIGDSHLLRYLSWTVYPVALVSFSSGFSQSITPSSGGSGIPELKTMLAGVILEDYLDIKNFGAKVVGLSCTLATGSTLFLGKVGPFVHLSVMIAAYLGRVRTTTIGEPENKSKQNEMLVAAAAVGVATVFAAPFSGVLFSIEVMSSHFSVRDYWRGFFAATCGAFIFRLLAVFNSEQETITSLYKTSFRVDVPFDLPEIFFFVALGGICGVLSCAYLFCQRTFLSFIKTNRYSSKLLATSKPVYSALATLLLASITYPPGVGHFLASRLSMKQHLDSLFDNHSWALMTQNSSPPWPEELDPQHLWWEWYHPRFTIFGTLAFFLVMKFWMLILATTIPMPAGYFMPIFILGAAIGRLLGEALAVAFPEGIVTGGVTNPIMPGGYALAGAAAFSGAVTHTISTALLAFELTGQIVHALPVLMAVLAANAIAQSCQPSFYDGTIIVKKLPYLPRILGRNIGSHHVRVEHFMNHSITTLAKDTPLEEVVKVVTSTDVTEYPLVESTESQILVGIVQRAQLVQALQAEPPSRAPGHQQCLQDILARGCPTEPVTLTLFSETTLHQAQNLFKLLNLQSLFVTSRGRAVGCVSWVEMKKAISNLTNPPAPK


What was measured:
eGFP-ClC-Kb (human) = biological target: T1, eGFP-ClC-Kb (human); assay: co-IP; Lysates (ComplexioLyte-47a) of co-transfected HEK293T cells; monoclonal anti-GFP antibody and protein G beads capture eGFP-CLC-K; elution with SDS loading buffer; co-eluted barttin-mCherry detected by fluorescence scan of a 10% SDS gel; control without antibody
eGFP-ClC-Ka (human) = biological target: T2, eGFP-ClC-Ka (human); assay: as above

binding (eGFP-ClC-Kb (human))	binding (eGFP-ClC-Ka (human))	Binder
binds	binds	WT barttin-mCherry (protein, UniProt Q8WZ55 1-320) MADEKTFRIGFIVLGLFLLALGTFLMSHDRPQVYGTFYAMGSVMVIGGIIWSMCQCYPKITFVPADSDFQGILSPKAMGLLENGLAAEMKSPSPQPPYVRLWEEAAYDQSLPDFSHIQMKVMSYSEDHRSLLAPEMGQPKLGTSDGGEGGPGDVQAWMEAAVVIHKGSDESEGERRLTQSWPGPLACPQGPAPLASFQDDLDMDSSEGSSPNASPHDREEACSPQQEPQGCRCPLDRFQDFALIDAPTLEDEPQEGQQWEIALPNNWQRYPRTKVEEKEASDTGGEEPEKEEEDLYYGLPDGAGDLLPDKELGFEPDTQG
binds	binds	V33L barttin-mCherry (protein, UniProt Q8WZ55 1-320) MADEKTFRIGFIVLGLFLLALGTFLMSHDRPQLYGTFYAMGSVMVIGGIIWSMCQCYPKITFVPADSDFQGILSPKAMGLLENGLAAEMKSPSPQPPYVRLWEEAAYDQSLPDFSHIQMKVMSYSEDHRSLLAPEMGQPKLGTSDGGEGGPGDVQAWMEAAVVIHKGSDESEGERRLTQSWPGPLACPQGPAPLASFQDDLDMDSSEGSSPNASPHDREEACSPQQEPQGCRCPLDRFQDFALIDAPTLEDEPQEGQQWEIALPNNWQRYPRTKVEEKEASDTGGEEPEKEEEDLYYGLPDGAGDLLPDKELGFEPDTQG
